Assay results from article PMC12199328.

T1: Flag-PPARα (peroxisome proliferator-activated receptor alpha) (UniProt Q07869)
T1 sequence: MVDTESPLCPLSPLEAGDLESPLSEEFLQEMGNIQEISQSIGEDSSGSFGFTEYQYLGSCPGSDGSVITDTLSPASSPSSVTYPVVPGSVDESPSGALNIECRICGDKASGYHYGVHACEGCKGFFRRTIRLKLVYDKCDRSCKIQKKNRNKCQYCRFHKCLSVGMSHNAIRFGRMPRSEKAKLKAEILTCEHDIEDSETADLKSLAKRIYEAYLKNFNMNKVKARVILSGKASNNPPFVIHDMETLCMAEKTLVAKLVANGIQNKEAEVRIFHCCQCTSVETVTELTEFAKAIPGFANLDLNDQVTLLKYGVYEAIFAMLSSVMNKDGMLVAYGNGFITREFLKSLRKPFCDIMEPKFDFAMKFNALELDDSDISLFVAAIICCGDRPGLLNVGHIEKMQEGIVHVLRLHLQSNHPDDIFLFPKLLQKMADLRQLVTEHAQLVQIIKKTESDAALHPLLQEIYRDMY

B1: FHL1 (protein, UniProt Q13642 1-323)
chain: MAEKFDCHYCRDPLQGKKYVQKDGHHCCLKCFDKFCANTCVECRKPIGADSKEVHYKNRFWHDTCFRCAKCLHPLANETFVAKDNKILCNKCTTREDSPKCKGCFKAIVAGDQNVEYKGTVWHKDCFTCSNCKQVIGTGSFFPKGEDFYCVTCHETKFAKHCVKCNKAITSGGITYQDQPWHADCFVCVTCSKKLAGQRFTAVEDQYYCVDCYKNFVAKKCAGCKNPITGKRTVSRVSHPVSKARKPPVCHGKRLPLTLFPSANLRGRHPGGERTCPSWVVVLYRKNRSLAAPRGPGLVKAPVWWPMKDNPGTTTASTAKNAP
B2: UCK2 (enzyme, UniProt Q9BZX2 1-261)
chain: MAGDSEQTLQNHQQPNGGEPFLIGVSGGTASGKSSVCAKIVQLLGQNEVDYRQKQVVILSQDSFYRVLTSEQKAKALKGQFNFDHPDAFDNELILKTLKEITEGKTVQIPVYDFVSHSRKEETVTVYPADVVLFEGILAFYSQEVRDLFQMKLFVDTDADTRLSRRVLRDISERGRDLEQILSQYITFVKPAFEEFCLPTKKYADVIIPRGADNLVAINLIVQHIQDILNGGPSKRQTNGCLNGYTPSRKRQASESSSRPH
B3: HMMR (protein, UniProt O75330 1-724)
chain: MSFPKAPLKRFNDPSGCAPSPGAYDVKTLEVLKGPVSFQKSQRFKQQKESKQNLNVDKDTTLPASARKVKSSESKESQKNDKDLKILEKEIRVLLQERGAQDRRIQDLETELEKMEARLNAALREKTSLSANNATLEKQLIELTRTNELLKSKFSENGNQKNLRILSLELMKLRNKRETKMRGMMAKQEGMEMKLQVTQRSLEESQGKIAQLEGKLVSIEKEKIDEKSETEKLLEYIEEISCASDQVEKYKLDIAQLEENLKEKNDEILSLKQSLEENIVILSKQVEDLNVKCQLLEKEKEDHVNRNREHNENLNAEMQNLKQKFILEQQEREKLQQKELQIDSLLQQEKELSSSLHQKLCSFQEEMVKEKNLFEEELKQTLDELDKLQQKEEQAERLVKQLEEEAKSRAEELKLLEEKLKGKEAELEKSSAAHTQATLLLQEKYDSMVQSLEDVTAQFESYKALTASEIEDLKLENSSLQEKAAKAGKNAEDVQHQILATESSNQEYVRMLLDLQTKSALKETEIKEITVSFLQKITDLQNQLKQQEEDFRKQLEDEEGRKAEKENTTAELTEEINKWRLLYEELYNKTKPFQLQLDAFEVEKQALLNEHGAAQEQLNKIRDSYAKLLGHQNLKQKIKHVVKLKDENSQLKSEVSKLRCQLAKKKQSETKLQEELNKVLGIKHFDPSKAFHHESKENFALKTPLKEGNTNCYRAPMECQESWK
B4: USP4 (endogenous, HEK293T; hit of the IP-MS) (enzyme, UniProt Q13107 1-963)
chain: MAEGGGCRERPDAETQKSELGPLMRTTLQRGAQWYLIDSRWFKQWKKYVGFDSWDMYNVGEHNLFPGPIDNSGLFSDPESQTLKEHLIDELDYVLVPTEAWNKLLNWYGCVEGQQPIVRKVVEHGLFVKHCKVEVYLLELKLCENSDPTNVLSCHFSKADTIATIEKEMRKLFNIPAERETRLWNKYMSNTYEQLSKLDNTVQDAGLYQGQVLVIEPQNEDGTWPRQTLQSKSSTAPSRNFTTSPKSSASPYSSVSASLIANGDSTSTCGMHSSGVSRGGSGFSASYNCQEPPSSHIQPGLCGLGNLGNTCFMNSALQCLSNTAPLTDYFLKDEYEAEINRDNPLGMKGEIAEAYAELIKQMWSGRDAHVAPRMFKTQVGRFAPQFSGYQQQDSQELLAFLLDGLHEDLNRVKKKPYLELKDANGRPDAVVAKEAWENHRLRNDSVIVDTFHGLFKSTLVCPECAKVSVTFDPFCYLTLPLPLKKDRVMEVFLVPADPHCRPTQYRVTVPLMGAVSDLCEALSRLSGIAAENMVVADVYNHRFHKIFQMDEGLNHIMPRDDIFVYEVCSTSVDGSECVTLPVYFRERKSRPSSTSSASALYGQPLLLSVPKHKLTLESLYQAVCDRISRYVKQPLPDEFGSSPLEPGACNGSRNSCEGEDEEEMEHQEEGKEQLSETEGSGEDEPGNDPSETTQKKIKGQPCPKRLFTFSLVNSYGTADINSLAADGKLLKLNSRSTLAMDWDSETRRLYYDEQESEAYEKHVSMLQPQKKKKTTVALRDCIELFTTMETLGEHDPWYCPNCKKHQQATKKFDLWSLPKILVVHLKRFSYNRYWRDKLDTVVEFPIRGLNMSEFVCNLSARPYVYDLIAVSNHYGAMGVGHYTAYAKNKLNGKWYYFDDSNVSLASEDQIVTKAAYVLFYQRRDDEFYKTPSLSSSGSSDGGTRPSSSQQGFGDDEACSMDTN

These binders were tested against T1, Flag-PPARα (peroxisome proliferator-activated receptor alpha) (assay: affinity purification with mass spectrometry; Flag-PPARα overexpressed in HEK293T cells; immunoprecipitation with Anti-Flag and Anti-IgG magnetic beads, then mass spectrometry (IP-MS, n = 2)).

binding, binds:
B1, B2, B3, B4

These are yes or no findings as the source states them, for the method shown. Binding seen in cells or lysates may run through a third protein. Here binding means that the protein was enriched with, or labelled near, the bait; the list need not be complete. Where a sequence is shown, tags or fusion partners need not be part of it.
